Measurements as given in publication PMC8682746.
Results are given in words; binding and its absence hold for the method and conditions named. In cells and extracts the contact can be indirect. A yes stands for co-enrichment or nearness to the bait. Other partners may have been found.

Amino acid sequences for entries named in this document (tags omitted). A change or cut given only in a name is not applied to a line headed by its entry.
UniProt Q386L5: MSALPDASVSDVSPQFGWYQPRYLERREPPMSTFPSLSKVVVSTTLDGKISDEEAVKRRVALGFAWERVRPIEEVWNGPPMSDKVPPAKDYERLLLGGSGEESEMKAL
UniProt Q581X3: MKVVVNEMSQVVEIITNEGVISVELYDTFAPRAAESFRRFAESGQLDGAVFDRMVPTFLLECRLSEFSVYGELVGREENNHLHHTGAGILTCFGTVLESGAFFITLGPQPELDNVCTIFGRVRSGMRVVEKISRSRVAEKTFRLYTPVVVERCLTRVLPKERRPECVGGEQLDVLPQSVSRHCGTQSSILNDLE
UniProt Q57ZB8: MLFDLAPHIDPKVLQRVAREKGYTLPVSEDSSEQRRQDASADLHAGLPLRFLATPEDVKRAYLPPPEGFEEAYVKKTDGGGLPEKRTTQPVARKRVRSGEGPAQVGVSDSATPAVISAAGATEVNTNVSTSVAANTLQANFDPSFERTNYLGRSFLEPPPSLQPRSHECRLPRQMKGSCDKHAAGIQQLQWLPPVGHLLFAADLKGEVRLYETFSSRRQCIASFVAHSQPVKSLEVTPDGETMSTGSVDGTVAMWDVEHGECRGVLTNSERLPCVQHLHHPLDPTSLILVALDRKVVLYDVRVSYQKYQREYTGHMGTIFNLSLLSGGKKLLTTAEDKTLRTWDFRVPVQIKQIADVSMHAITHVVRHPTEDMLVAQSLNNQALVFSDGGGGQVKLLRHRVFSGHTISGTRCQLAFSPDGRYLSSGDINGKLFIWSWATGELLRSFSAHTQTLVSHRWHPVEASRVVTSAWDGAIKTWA
UniProt Q38BA6: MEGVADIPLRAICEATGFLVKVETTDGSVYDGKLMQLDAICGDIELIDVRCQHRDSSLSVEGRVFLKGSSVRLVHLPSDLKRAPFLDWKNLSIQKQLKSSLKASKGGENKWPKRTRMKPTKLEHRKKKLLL
UniProt Q383B9: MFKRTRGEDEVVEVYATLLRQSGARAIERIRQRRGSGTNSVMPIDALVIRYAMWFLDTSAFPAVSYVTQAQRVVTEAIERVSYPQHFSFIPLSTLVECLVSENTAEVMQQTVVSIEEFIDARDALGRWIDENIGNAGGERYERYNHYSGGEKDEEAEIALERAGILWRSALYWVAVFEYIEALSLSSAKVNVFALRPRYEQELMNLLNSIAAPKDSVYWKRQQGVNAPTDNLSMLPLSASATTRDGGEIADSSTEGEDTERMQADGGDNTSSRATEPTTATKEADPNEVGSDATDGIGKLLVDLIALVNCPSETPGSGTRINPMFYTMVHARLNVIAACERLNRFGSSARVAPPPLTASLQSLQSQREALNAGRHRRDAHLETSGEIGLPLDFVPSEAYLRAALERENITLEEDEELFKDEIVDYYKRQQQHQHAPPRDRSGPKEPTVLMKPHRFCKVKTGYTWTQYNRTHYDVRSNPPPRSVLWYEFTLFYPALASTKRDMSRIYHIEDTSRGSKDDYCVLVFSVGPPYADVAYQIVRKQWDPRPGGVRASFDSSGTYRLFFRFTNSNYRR
UniProt Q4GYY6: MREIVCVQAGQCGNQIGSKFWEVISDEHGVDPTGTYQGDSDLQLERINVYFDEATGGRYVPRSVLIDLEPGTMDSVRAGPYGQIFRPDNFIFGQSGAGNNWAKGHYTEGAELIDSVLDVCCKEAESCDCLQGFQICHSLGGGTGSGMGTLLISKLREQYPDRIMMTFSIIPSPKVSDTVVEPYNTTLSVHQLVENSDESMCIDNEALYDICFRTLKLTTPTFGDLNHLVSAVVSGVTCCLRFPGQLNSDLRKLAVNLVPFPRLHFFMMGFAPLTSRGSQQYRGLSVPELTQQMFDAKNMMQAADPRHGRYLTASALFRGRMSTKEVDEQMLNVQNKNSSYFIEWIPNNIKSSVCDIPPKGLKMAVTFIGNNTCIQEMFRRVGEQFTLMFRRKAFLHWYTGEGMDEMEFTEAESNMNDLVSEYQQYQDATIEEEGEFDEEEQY
UniProt Q38DM0: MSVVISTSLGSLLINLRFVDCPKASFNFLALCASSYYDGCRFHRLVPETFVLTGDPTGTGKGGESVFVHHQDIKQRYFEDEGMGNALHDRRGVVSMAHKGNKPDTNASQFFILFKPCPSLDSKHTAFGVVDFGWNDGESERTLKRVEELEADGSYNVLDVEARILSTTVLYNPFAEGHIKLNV
UniProt O96971: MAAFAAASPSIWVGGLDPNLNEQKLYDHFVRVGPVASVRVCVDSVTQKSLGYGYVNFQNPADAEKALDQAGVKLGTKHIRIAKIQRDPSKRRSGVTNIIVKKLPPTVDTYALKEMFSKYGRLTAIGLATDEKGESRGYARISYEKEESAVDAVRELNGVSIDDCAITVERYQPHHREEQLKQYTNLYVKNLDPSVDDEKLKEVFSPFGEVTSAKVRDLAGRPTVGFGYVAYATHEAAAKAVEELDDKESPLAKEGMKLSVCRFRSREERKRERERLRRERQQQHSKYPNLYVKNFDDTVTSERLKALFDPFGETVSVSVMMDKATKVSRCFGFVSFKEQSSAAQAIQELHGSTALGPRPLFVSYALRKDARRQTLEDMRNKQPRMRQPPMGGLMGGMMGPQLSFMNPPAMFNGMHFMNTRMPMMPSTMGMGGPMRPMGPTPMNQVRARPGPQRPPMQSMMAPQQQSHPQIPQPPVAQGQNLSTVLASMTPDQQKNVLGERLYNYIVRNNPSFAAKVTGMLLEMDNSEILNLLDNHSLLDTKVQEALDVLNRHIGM
UniProt Q581Y9: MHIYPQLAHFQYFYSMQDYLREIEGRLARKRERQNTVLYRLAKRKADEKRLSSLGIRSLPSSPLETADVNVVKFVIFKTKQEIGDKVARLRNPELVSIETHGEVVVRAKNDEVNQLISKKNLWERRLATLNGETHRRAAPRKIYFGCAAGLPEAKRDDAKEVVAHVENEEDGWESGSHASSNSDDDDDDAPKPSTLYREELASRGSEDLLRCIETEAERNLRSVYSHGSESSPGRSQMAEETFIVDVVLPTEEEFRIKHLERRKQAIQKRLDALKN
UniProt Q586Q6: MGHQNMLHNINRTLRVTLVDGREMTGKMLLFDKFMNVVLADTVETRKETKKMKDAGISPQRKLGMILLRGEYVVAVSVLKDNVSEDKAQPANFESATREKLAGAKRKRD
UniProt D6XIG3: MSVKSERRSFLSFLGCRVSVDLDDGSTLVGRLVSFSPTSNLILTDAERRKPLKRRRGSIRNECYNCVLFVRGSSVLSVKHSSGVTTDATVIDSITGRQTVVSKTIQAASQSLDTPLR
UniProt Q585J6: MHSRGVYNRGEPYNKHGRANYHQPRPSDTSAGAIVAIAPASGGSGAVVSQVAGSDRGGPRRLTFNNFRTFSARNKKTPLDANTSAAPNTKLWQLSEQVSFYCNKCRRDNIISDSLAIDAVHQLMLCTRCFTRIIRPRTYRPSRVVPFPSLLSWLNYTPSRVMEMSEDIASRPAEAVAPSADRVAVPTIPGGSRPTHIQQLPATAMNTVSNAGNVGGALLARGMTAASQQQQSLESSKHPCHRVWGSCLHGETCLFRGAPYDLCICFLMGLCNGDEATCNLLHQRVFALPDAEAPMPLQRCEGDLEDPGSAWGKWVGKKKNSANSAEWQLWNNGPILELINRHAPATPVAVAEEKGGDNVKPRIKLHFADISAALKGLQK
UniProt Q57ZX8: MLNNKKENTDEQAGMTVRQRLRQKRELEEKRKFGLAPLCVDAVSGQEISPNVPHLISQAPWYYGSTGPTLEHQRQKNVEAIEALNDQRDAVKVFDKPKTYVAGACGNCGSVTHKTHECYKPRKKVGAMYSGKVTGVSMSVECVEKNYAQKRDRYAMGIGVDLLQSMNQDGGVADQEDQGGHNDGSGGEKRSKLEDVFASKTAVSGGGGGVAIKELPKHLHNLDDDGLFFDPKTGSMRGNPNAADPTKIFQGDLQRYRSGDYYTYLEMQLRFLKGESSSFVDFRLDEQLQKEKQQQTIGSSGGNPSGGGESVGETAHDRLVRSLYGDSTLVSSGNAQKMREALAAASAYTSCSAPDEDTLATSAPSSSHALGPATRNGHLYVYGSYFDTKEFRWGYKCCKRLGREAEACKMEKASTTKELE
UniProt Q4GYY5: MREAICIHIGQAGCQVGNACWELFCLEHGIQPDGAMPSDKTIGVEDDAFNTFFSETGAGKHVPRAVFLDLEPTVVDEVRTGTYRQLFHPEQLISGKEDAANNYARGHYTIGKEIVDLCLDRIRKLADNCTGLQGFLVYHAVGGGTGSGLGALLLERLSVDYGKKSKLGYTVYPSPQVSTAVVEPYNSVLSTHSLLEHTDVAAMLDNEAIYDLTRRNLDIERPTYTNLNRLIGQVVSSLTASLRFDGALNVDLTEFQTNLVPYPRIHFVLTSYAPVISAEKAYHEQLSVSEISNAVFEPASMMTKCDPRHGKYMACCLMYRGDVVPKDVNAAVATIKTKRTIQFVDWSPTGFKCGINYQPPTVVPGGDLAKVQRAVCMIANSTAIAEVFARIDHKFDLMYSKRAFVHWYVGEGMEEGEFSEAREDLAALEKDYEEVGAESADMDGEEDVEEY
UniProt Q57ZW7: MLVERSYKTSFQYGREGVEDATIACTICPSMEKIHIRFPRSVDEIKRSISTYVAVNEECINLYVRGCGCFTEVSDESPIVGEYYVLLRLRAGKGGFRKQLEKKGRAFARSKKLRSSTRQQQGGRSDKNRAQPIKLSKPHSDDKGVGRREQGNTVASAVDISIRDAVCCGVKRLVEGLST
UniProt Q585U7: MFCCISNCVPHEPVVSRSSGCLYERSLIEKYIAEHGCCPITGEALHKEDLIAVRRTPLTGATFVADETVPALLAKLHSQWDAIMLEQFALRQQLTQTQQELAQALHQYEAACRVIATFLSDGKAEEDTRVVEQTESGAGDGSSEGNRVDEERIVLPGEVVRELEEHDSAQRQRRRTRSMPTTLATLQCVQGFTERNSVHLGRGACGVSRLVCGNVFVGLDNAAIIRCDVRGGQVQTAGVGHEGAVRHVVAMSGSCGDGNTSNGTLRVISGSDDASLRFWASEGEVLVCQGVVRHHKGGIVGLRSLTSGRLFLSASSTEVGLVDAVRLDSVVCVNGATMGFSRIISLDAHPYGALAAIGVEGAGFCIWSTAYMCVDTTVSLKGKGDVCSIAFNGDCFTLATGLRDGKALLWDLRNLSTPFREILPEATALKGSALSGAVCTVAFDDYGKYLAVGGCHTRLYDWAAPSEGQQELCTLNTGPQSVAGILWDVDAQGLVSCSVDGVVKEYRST
UniProt Q586C5: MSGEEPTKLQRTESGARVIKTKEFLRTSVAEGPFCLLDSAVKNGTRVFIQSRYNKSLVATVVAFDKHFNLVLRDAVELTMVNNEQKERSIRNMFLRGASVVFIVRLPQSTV
UniProt Q38FI2: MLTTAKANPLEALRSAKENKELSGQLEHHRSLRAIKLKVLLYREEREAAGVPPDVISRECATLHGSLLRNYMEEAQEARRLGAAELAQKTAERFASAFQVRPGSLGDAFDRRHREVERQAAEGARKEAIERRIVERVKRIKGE
UniProt Q57ZS5: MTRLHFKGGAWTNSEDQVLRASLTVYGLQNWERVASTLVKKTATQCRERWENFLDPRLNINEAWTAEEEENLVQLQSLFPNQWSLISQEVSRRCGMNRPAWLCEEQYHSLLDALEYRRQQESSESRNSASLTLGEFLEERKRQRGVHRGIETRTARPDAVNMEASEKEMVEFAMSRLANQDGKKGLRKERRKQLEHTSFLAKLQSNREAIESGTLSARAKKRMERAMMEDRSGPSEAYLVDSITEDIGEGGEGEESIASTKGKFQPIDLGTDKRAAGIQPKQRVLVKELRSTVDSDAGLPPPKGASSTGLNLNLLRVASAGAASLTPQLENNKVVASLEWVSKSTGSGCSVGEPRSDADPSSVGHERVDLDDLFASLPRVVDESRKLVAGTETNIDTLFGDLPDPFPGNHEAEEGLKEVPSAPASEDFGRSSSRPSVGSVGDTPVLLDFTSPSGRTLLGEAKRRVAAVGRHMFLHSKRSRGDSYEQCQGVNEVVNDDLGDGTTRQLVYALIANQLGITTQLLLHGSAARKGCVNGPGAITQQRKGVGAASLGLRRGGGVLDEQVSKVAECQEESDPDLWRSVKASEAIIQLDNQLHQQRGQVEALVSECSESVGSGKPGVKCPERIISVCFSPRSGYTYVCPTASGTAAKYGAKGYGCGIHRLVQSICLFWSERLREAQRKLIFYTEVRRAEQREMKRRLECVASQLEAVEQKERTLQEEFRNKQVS
UniProt Q389W0: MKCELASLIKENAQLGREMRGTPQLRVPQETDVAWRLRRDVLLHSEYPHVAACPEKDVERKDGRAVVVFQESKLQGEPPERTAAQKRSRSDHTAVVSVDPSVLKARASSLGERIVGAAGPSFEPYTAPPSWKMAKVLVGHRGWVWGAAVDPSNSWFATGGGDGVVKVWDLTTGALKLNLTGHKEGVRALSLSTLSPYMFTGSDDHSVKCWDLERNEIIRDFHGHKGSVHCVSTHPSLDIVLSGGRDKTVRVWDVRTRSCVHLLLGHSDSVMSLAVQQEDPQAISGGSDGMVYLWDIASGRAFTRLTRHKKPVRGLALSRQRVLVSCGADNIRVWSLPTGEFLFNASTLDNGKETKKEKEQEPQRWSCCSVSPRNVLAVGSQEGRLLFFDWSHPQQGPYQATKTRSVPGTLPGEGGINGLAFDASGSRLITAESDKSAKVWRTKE

Molecular target: PRC5-PTP (Trypanosoma brucei) (UniProt Q386L5)
Experiment: affinity purification with mass spectrometry; PRC5-PTP tandem affinity purification from crude extract of TbPRC5-PTPee procyclic trypanosomes (IgG affinity, TEV protease release, anti-ProtC immunoaffinity, elution by calcium chelation); whole gel lane of the final eluate analysed by LC/MS/MS, two comprehensive analyses

Molecule	binding
SmF (from UniProt Q9GYZ7)	binds
SSm4 (from UniProt D6XJG9)	binds
PPIL1 (from UniProt Q581X3)	binds
PRP17 (from UniProt Q57ZB8)	binds
SSm2.2 (U2-16.5K) (from UniProt Q38BA6)	binds
Cactin (from UniProt Q383B9)	binds
Beta tubulin (from UniProt Q4GYY6)	binds
BRR2 (U5-200K) (from UniProt Q582D6)	binds
AD002, CWC15 (from UniProt Q389E7)	binds
PPIL3 (from UniProt Q38DM0)	binds
PRP8 (from UniProt Q38DR4)	binds
SYF3 (from UniProt Q38A09)	binds
PABP2 (from UniProt O96971)	binds
ISY1 (from UniProt Q581Y9)	binds
SmE (from UniProt Q9GYZ3)	binds
SmB (from UniProt Q586Q6)	binds
SSm2-1 (Sm15K) (from UniProt D6XIG3)	binds

Molecule	binding
protein encoded by gene Tb927.5.990 (from UniProt Q57W44)	binds
SmD1 (from UniProt Q9GYZ5)	binds
protein encoded by gene Tb927.4.3540 (from UniProt Q585J6)	binds
CWC22 (from UniProt Q383K4)	binds
SLU7 (from UniProt Q57ZX8)	binds
Alpha tubulin (from UniProt Q4GYY5)	binds
protein encoded by gene Tb927.5.2910 (from UniProt Q57ZW7)	binds
PRP19 (from UniProt Q585U7)	binds
SmD2 (from UniProt Q586C5)	binds
Cwc21 (from UniProt Q38FI2)	binds
SPF27 (from UniProt Q382C2)	binds
CDC5 (from UniProt Q57ZS5)	binds
PRL1 (from UniProt Q389W0)	binds
LSm8 (protein, UniProt Q6QA14 1-129) MLSQYLRRRVSVVTVDGRYLVGVLHAADQLMNLVLTSCAERVFDDEAEDSTDPNDIKNNRNGTNGATPPGGEMREHSLGVLMIRGSDVVCVASVNTVEEAKLSRKLWRGRNLPVVERVARSATASVKGG	binds
LSm4 (protein, UniProt Q6QA18 1-127) MSVRKPITPLDVLRNCRAKVVSVELAGGETINGTVVRVDRAMNMVLKQCIRTSADGEAFWRSRESLIRGASVRNVRMDERAVIIADAQLREVTSKSKNKNRVKAKSNDKQQGERKATLSGEKRNRGK	binds
LSm7 (protein, UniProt Q6QA15 1-92) MSAQQAHILKKKESILSLEPHLDRRVVVSLEDREVHGVLKGFDNNINLVLANAEIWNKDVRERQIGACVVRGGLLVSVSSGDTAILQQNPFQ	binds
LSm3 (protein, UniProt Q6QA19 1-81) MDPFVFLLQSVDCPVRVHTVNRETTSGTLLAVDDHCNIMLKDWSTTGHLPSIEGAAPASLRFIRGEQIRTITLAPQSYQVN	binds
